This note sets out measurements from paper PMC9948308, “DnaK and DnaJ proteins from Hsp70/40 family are involved in Rubisco biosynthesis in Synechocystis sp. PCC6803 and sustain the enzyme assembly in a heterologous system” (BMC Plant Biology, 2023).

Protein sequences, listed by entry. Tags and fused reporters are not part of them.
UniProt P54205: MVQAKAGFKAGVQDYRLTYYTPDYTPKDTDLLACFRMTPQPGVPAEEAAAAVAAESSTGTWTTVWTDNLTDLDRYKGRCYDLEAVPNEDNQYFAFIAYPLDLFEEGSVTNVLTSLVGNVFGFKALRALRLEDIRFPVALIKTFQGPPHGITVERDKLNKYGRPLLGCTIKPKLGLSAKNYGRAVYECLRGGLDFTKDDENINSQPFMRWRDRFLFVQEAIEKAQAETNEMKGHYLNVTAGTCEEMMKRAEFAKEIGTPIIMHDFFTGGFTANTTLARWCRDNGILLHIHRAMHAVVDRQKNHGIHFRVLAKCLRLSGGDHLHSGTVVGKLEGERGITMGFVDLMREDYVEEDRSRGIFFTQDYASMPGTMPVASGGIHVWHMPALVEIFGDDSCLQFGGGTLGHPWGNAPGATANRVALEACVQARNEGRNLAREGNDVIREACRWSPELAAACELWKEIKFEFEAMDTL
UniProt P22358: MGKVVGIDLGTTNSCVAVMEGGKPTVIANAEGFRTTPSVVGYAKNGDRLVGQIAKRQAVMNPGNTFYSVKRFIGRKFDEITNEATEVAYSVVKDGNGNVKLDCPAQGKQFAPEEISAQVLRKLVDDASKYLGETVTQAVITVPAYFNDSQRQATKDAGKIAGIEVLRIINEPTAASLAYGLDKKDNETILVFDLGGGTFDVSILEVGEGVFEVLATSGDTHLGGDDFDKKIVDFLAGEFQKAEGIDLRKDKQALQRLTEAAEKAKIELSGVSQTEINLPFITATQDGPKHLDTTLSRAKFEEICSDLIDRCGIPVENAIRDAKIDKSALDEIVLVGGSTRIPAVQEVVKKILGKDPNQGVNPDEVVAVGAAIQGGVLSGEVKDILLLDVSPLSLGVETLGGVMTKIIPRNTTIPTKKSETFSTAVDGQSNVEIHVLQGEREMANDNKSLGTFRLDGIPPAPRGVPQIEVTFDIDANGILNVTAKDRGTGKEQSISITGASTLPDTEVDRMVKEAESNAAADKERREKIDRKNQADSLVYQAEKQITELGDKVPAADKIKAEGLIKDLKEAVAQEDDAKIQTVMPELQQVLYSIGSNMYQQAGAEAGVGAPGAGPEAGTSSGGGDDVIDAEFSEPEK

These are yes or no findings as the source states them, for the method shown. Some results given as binding are weak or reduced against the parent protein; the word gives no strength. For some of these results: Where a sequence is shown, tags or fusion partners need not be part of it.

Assay [1] addresses RbcL, endogenous in Synechocystis sp. PCC 6803 (Synechocystis sp. PCC 6803 (endogenous in Synechocystis sp. PCC 6803)) (UniProt P54205). Description: native gel or EMSA; soluble fraction of Synechocystis sp. PCC 6803 (wild type, Δraf1 and Δsll1384 strains); native PAGE, western blots with anti-RbcL, anti-DnaK, anti-DnaJ, anti-Raf1. A general note: Mobility shift assays separate free from complexed probe on a gel.

The target in assay [2] is RbcL from the LXS operon of Synechocystis sp. PCC6803, co-expressed in E. coli (Synechocystis sp. PCC6803) (UniProt P54205). Nature of the assay: native gel or EMSA; soluble fraction of E. coli co-expressing the LXS operon with DnaK2, DnaJ Sll1384 and/or Raf1; 4-15% native PAGE, western blots.
The target in assay [3] is RbcL (Rubisco large subunit) from Synechocystis sp. PCC6803, unfolded, isolated from inclusion bodies (Synechocystis sp. PCC6803) (UniProt P54205). Description: condition: only with ATP alone, without DnaJ Sll1384; 5 µM DnaK2; 1,8-ANS displacement assay (fluorescence); DnaK2 (final 5 µM) added to unfolded RbcL with 1,8-ANS, ATP (5 mM) alone in the starting mixture, no DnaJ; both purified.

Assay [4] has the same target. Nature of the assay: 1,8-ANS displacement assay (fluorescence); DnaK2 tested together with DnaJ Sll1384 on unfolded RbcL with 1,8-ANS, with or without ATP; both purified.
Assay [5] has the same target. Nature of the assay: 1,8-ANS displacement assay (fluorescence); a single DnaJ homolog (final 5 µM) added to unfolded RbcL pre-equilibrated with 1,8-ANS; emission 470 nm, excitation 390 nm; 50 mM phosphate buffer pH 7, 0.5 M GndHCl; both purified.

For “DnaK2, endogenous in Synechocystis sp. PCC 6803 (from UniProt P22358 1-636)”, in assay [1], the binding entry was “binds”.

Consider “DnaK2 of Synechocystis sp. PCC6803, co-expressed in E. coli from pCDFDnaK2 (from UniProt P22358 1-636)”, for which, in assay [2], the binding entry is “binds”.

For “DnaK2 from Synechocystis sp. PCC6803, His-tagged (from UniProt P22358 1-636)”, the results for the binding entry in assay [3] and in assay [4] were “no binding” and “binds weakly”, respectively.

B1: RbcS from the LXS operon of Synechocystis sp. PCC6803, co-expressed in E. coli (protein, UniProt P54206 1-113)
chain: MKTLPKERRYETLSYLPPLTDQQIAKQVEFLLDQGFIPGVEFEEDPQPETHFWTMWKLPFFGGATANEVLAEVRECRSENPNCYIRVIGFDNIKQCQTVSFIVHKPNQNQGRY
For the molecule B1, the binding result in assay [2] is on record as “binds”.

B2: DnaJ Sll1933 from Synechocystis sp. PCC6803, His-tagged (protein, UniProt P73097 1-307)
chain: MEQVRNYYQILGVPRNATAEEIKKSFRKLARQYHPDVNPNDKTAEEKFKDINEAYDVLSDETKRRELDSRLFGRFRRPPTSRFSPNSNGGRSPNGTSVNGQVRTPTGRTGTRQPAQSWQDFSETRRTKVVSPARPVPRDVEANLTLPLEKAYRGGKERIRLEDGRSLEVEMPGGMGDGQRIRLKQQGINGGDLYLKINLSPHPLFTLQGTDIACQVPVTPSEAILGGAIEVMTIDGLVKMTVPAGLKNGQKLRLAKKGFPNNQGDRGDQLVEIRVEIPPEPSPEELELYRRIREKETFNPRQKFFDF
Turning to B2, the binding result in assay [5] is recorded as “no binding (tested: 5 µM)”.

B3: DnaJ Slr0093 from Synechocystis sp. PCC6803, His-tagged (protein, UniProt P50027 1-332)
chain: MASTDFKDYYQILGVTKTASEAEIKKQFRKLALKYHPDKNPGDKAAEEKFKEISEAYEVLSDPEKRQKYDQFGRYWQQAGTAGQPSGSYGPGVGVDFGGFDFSQYGNFDEFINELLGRFNTPGGGGQRTSYSYSTGGPGFNDFGGFGNAQAPAGDREATLQLTLAEAFRGVEKRLNLGEEMVTVRIPAGAKNGSRVRVRGKGMASPYGQRGDLYLNLQLTPHPFFQFEGDNLVCELAIAPDEAVLGADISVPTPDGMVRMKVPAGVKSGQSLRLKGKGWPNPKQGRGDQLVRLIITAPKNPSAIERECYEKIQAQRTENPRQAVEKYANLLA
As to B3, the binding result in assay [5] is listed as “no binding (tested: 5 µM)”.
